{
  "source": "the supplement of paper PMC8728848",
  "binders": {"B1": {"name": "XTP3-B-MRH1 (Homo sapiens), Q96DZ1 (protein)", "chain": "LLEPLFKQSSCSYRIESYWTYEVCHGKHIRQYHEEKETGQKINIHEYYLGNMLAKNLLFEKEREAEEKEKSNEIPTKNIEGQMTPYYPVGMGNGTPCSLKQNRPRSSTVMYICHPESKHEILSVAEVTTCEYEVVILTPLLCSHPKYRFRA"}},
  "test_in_all_cases": "glycan array binding signal (z-score within array); higher = stronger binding",
  "conditions_in_all_cases": "glycan notation: IUPAC condensed, linker removed",
  "key": {"[1]": {"biological_target": "GlcNAc(b1-4)GlcNAc(b1-4)GlcNAc(b1-4)GlcNAc(b1-4)GlcNAc", "procedure,_shortened": "(§1)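 Glycan array binding is given as a within-array Z-score, which can be read as non-binding when negative. The arrays, 3228 of them, came from the Consortium for Functional Glycomics database and were retained only where the protein sequence was available. Z-scores were averaged across arrays of the same protein sequence at different concentrations or buffers and across linkers.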"}, "[2]": {"biological_target": "GlcNAc(b1-4)GlcNAc(b1-4)GlcNAc(b1-4)GlcNAc(b1-4)GlcNAc(b1-4)GlcNAc", "procedure,_shortened": "as §1"}, "[3]": {"biological_target": "GlcNAc(b1-4)[GlcNAc(b1-6)]GalNAc", "procedure,_shortened": "as §1"}, "[4]": {"biological_target": "GlcNAc(b1-6)Gal(b1-4)GlcNAc", "procedure,_shortened": "as §1"}, "GlcNAc(b1-6)GalNAc": {"biological_target": "GlcNAc(b1-6)GalNAc", "procedure,_shortened": "as §1"}, "[5]": {"biological_target": "GlcNAc6S(b1-3)Gal(b1-4)GlcNAc", "procedure,_shortened": "as §1"}, "Kdn(a2-3)Gal(b1-3)GalNAc": {"biological_target": "Kdn(a2-3)Gal(b1-3)GalNAc", "procedure,_shortened": "as §1"}, "Kdn(a2-3)Gal(b1-3)GlcNAc": {"biological_target": "Kdn(a2-3)Gal(b1-3)GlcNAc", "procedure,_shortened": "as §1"}, "Kdn(a2-3)Gal(b1-4)Glc": {"biological_target": "Kdn(a2-3)Gal(b1-4)Glc", "procedure,_shortened": "as §1"}, "Kdn(a2-3)Gal(b1-4)GlcNAc": {"biological_target": "Kdn(a2-3)Gal(b1-4)GlcNAc", "procedure,_shortened": "as §1"}, "[6]": {"biological_target": "Kdn(a2-3)Gal(b1-4)[Fuc(a1-3)]GlcNAc", "procedure,_shortened": "as §1"}, "Kdn(a2-6)Gal(b1-4)GlcNAc": {"biological_target": "Kdn(a2-6)Gal(b1-4)GlcNAc", "procedure,_shortened": "as §1"}, "[7]": {"biological_target": "Man(a1-2)Man(a1-2)Man(a1-3)Man", "procedure,_shortened": "as §1"}, "[8]": {"biological_target": "Man(a1-2)Man(a1-2)Man(a1-6)[Man(a1-3)]Man", "procedure,_shortened": "as §1"}, "Man(a1-2)Man(a1-3)Man": {"biological_target": "Man(a1-2)Man(a1-3)Man", "procedure,_shortened": "as §1"}, "[9]": {"biological_target": "Man(a1-2)Man(a1-3)[Man(a1-2)Man(a1-6)]Man", "procedure,_shortened": "as §1"}, "[10]": {"biological_target": "Man(a1-2)Man(a1-3)[Man(a1-2)Man(a1-6)]Man(a1-6)[Man(a1-2)Man(a1-2)Man(a1-3)]Man", "procedure,_shortened": "as §1"}, "[11]": {"biological_target": "Man(a1-2)Man(a1-3)[Man(a1-2)Man(a1-6)]Man(a1-6)[Man(a1-2)Man(a1-2)Man(a1-3)]Man(b1-4)GlcNAc(b1-4)GlcNAc", "procedure,_shortened": "as §1"}, "[12]": {"biological_target": "Man(a1-2)Man(a1-3)[Man(a1-6)]Man(a1-6)[Man(a1-2)Man(a1-3)]Man(b1-4)GlcNAc(b1-4)GlcNAc", "procedure,_shortened": "as §1"}, "[13]": {"biological_target": "Man(a1-2)Man(a1-6)[Man(a1-3)]Man(a1-6)[Man(a1-2)Man(a1-2)Man(a1-3)]Man", "procedure,_shortened": "as §1"}, "[14]": {"biological_target": "Man(a1-2)Man(a1-6)[Man(a1-3)]Man(a1-6)[Man(a1-2)Man(a1-2)Man(a1-3)]Man(b1-4)GlcNAc(b1-4)GlcNAc", "procedure,_shortened": "as §1"}, "Man(a1-3)[Man(a1-6)]Man": {"biological_target": "Man(a1-3)[Man(a1-6)]Man", "procedure,_shortened": "as §1"}, "[15]": {"biological_target": "Man(a1-3)[Man(a1-6)]Man(a1-6)[Man(a1-2)Man(a1-3)]Man(b1-4)GlcNAc(b1-4)GlcNAc", "procedure,_shortened": "as §1"}, "[16]": {"biological_target": "Man(a1-3)[Man(a1-6)]Man(a1-6)[Man(a1-3)]Man", "procedure,_shortened": "as §1"}, "[17]": {"biological_target": "Man(a1-3)[Man(a1-6)]Man(a1-6)[Man(a1-3)]Man(b1-4)GlcNAc(b1-4)GlcNAc", "procedure,_shortened": "as §1"}, "[18]": {"biological_target": "Man(a1-3)[Man(a1-6)]Man(b1-4)GlcNAc(b1-4)GlcNAc", "procedure,_shortened": "as §1"}, "[19]": {"biological_target": "Man(a1-3)[Man(a1-6)]Man(b1-4)GlcNAc(b1-4)[Fuc(a1-6)]GlcNAc", "procedure,_shortened": "as §1"}, "Man(a1-6)Man": {"biological_target": "Man(a1-6)Man", "procedure,_shortened": "as §1"}, "Man(b1-4)GlcNAc": {"biological_target": "Man(b1-4)GlcNAc", "procedure,_shortened": "as §1"}, "MurNAc(b1-4)GlcNAc": {"biological_target": "MurNAc(b1-4)GlcNAc", "procedure,_shortened": "as §1"}, "Neu5Ac(a2-3)Gal": {"biological_target": "Neu5Ac(a2-3)Gal", "procedure,_shortened": "as §1"}, "[20]": {"biological_target": "Neu5Ac(a2-3)Gal(b1-3)GalNAc", "procedure,_shortened": "as §1"}, "[21]": {"biological_target": "Neu5Ac(a2-3)Gal(b1-3)GalNAc(b1-3)Gal(a1-4)Gal(b1-4)Glc", "procedure,_shortened": "as §1"}, "[22]": {"biological_target": "Neu5Ac(a2-3)Gal(b1-3)GalNAc(b1-4)Gal(b1-4)Glc", "procedure,_shortened": "as §1"}, "[23]": {"biological_target": "Neu5Ac(a2-3)Gal(b1-3)GalNAc(b1-4)[Neu5Ac(a2-3)]Gal(b1-4)Glc", "procedure,_shortened": "as §1"}, "[24]": {"biological_target": "Neu5Ac(a2-3)Gal(b1-3)GalNAc(b1-4)[Neu5Ac(a2-8)Neu5Ac(a2-3)]Gal(b1-4)Glc", "procedure,_shortened": "as §1"}, "[25]": {"biological_target": "Neu5Ac(a2-3)Gal(b1-3)GalNAc6S", "procedure,_shortened": "as §1"}, "[26]": {"biological_target": "Neu5Ac(a2-3)Gal(b1-3)GlcNAc", "procedure,_shortened": "as §1"}, "[27]": {"biological_target": "Neu5Ac(a2-3)Gal(b1-3)GlcNAc(b1-2)Man", "procedure,_shortened": "as §1"}, "[28]": {"biological_target": "Neu5Ac(a2-3)Gal(b1-3)GlcNAc(b1-2)Man(a1-3)[GlcNAc(b1-4)][Neu5Ac(a2-3)Gal(b1-3)GlcNAc(b1-2)Man(a1-6)]Man(b1-4)GlcNAc(b1-4)GlcNAc", "procedure,_shortened": "as §1"}, "[29]": {"biological_target": "Neu5Ac(a2-3)Gal(b1-3)GlcNAc(b1-2)Man(a1-3)[Neu5Ac(a2-3)Gal(b1-3)GlcNAc(b1-2)Man(a1-6)]Man(b1-4)GlcNAc(b1-4)GlcNAc", "procedure,_shortened": "as §1"}, "[30]": {"biological_target": "Neu5Ac(a2-3)Gal(b1-3)GlcNAc(b1-2)[Neu5Ac(a2-3)Gal(b1-3)GlcNAc(b1-4)]Man(a1-6)[Neu5Ac(a2-3)Gal(b1-3)GlcNAc(b1-2)Man(a1-3)]Man(b1-4)GlcNAc(b1-4)GlcNAc", "procedure,_shortened": "as §1"}, "[31]": {"biological_target": "Neu5Ac(a2-3)Gal(b1-3)GlcNAc(b1-3)Gal(b1-3)GlcNAc", "procedure,_shortened": "as §1"}, "[32]": {"biological_target": "Neu5Ac(a2-3)Gal(b1-3)GlcNAc(b1-3)Gal(b1-4)GlcNAc", "procedure,_shortened": "as §1"}, "[33]": {"biological_target": "Neu5Ac(a2-3)Gal(b1-3)GlcNAc(b1-3)GalNAc", "procedure,_shortened": "as §1"}},
  "note": "This is one part of the list.",
  "data": [
    {"binder": "B1", "values": [
      {"measurement": "glycan array binding signal (z-score)", "setting": "[1]", "value": 0.024},
      {"measurement": "glycan array binding signal (z-score)", "setting": "[2]", "value": 0.542},
      {"measurement": "glycan array binding signal (z-score)", "setting": "[3]", "value": -0.863},
      {"measurement": "glycan array binding signal (z-score)", "setting": "[4]", "value": 0.857},
      {"measurement": "glycan array binding signal (z-score)", "setting": "GlcNAc(b1-6)GalNAc", "value": -0.151},
      {"measurement": "glycan array binding signal (z-score)", "setting": "[5]", "value": -0.139},
      {"measurement": "glycan array binding signal (z-score)", "setting": "Kdn(a2-3)Gal(b1-3)GalNAc", "value": -0.148},
      {"measurement": "glycan array binding signal (z-score)", "setting": "Kdn(a2-3)Gal(b1-3)GlcNAc", "value": 0.064},
      {"measurement": "glycan array binding signal (z-score)", "setting": "Kdn(a2-3)Gal(b1-4)Glc", "value": 0.444},
      {"measurement": "glycan array binding signal (z-score)", "setting": "Kdn(a2-3)Gal(b1-4)GlcNAc", "value": -0.086},
      {"measurement": "glycan array binding signal (z-score)", "setting": "[6]", "value": 0.893},
      {"measurement": "glycan array binding signal (z-score)", "setting": "Kdn(a2-6)Gal(b1-4)GlcNAc", "value": 2.17},
      {"measurement": "glycan array binding signal (z-score)", "setting": "[7]", "value": -0.367},
      {"measurement": "glycan array binding signal (z-score)", "setting": "[8]", "value": -0.322},
      {"measurement": "glycan array binding signal (z-score)", "setting": "Man(a1-2)Man(a1-3)Man", "value": -1.45},
      {"measurement": "glycan array binding signal (z-score)", "setting": "[9]", "value": -0.311},
      {"measurement": "glycan array binding signal (z-score)", "setting": "[10]", "value": -0.201},
      {"measurement": "glycan array binding signal (z-score)", "setting": "[11]", "value": -0.893},
      {"measurement": "glycan array binding signal (z-score)", "setting": "[12]", "value": -1.65},
      {"measurement": "glycan array binding signal (z-score)", "setting": "[13]", "value": -0.073},
      {"measurement": "glycan array binding signal (z-score)", "setting": "[14]", "value": -1.35},
      {"measurement": "glycan array binding signal (z-score)", "setting": "Man(a1-3)[Man(a1-6)]Man", "value": -0.51},
      {"measurement": "glycan array binding signal (z-score)", "setting": "[15]", "value": -0.441},
      {"measurement": "glycan array binding signal (z-score)", "setting": "[16]", "value": 0.125},
      {"measurement": "glycan array binding signal (z-score)", "setting": "[17]", "value": -0.629},
      {"measurement": "glycan array binding signal (z-score)", "setting": "[18]", "value": 0.334},
      {"measurement": "glycan array binding signal (z-score)", "setting": "[19]", "value": -1.67},
      {"measurement": "glycan array binding signal (z-score)", "setting": "Man(a1-6)Man", "value": 0.203},
      {"measurement": "glycan array binding signal (z-score)", "setting": "Man(b1-4)GlcNAc", "value": -0.814},
      {"measurement": "glycan array binding signal (z-score)", "setting": "MurNAc(b1-4)GlcNAc", "value": -0.867},
      {"measurement": "glycan array binding signal (z-score)", "setting": "Neu5Ac(a2-3)Gal", "value": -0.797},
      {"measurement": "glycan array binding signal (z-score)", "setting": "[20]", "value": 1.12},
      {"measurement": "glycan array binding signal (z-score)", "setting": "[21]", "value": -0.636},
      {"measurement": "glycan array binding signal (z-score)", "setting": "[22]", "value": -1.29},
      {"measurement": "glycan array binding signal (z-score)", "setting": "[23]", "value": -0.509},
      {"measurement": "glycan array binding signal (z-score)", "setting": "[24]", "value": -1.04},
      {"measurement": "glycan array binding signal (z-score)", "setting": "[25]", "value": 0.361},
      {"measurement": "glycan array binding signal (z-score)", "setting": "[26]", "value": -0.322},
      {"measurement": "glycan array binding signal (z-score)", "setting": "[27]", "value": 0.891},
      {"measurement": "glycan array binding signal (z-score)", "setting": "[28]", "value": -0.064},
      {"measurement": "glycan array binding signal (z-score)", "setting": "[29]", "value": 1.56},
      {"measurement": "glycan array binding signal (z-score)", "setting": "[30]", "value": 0.173},
      {"measurement": "glycan array binding signal (z-score)", "setting": "[31]", "value": -1.33},
      {"measurement": "glycan array binding signal (z-score)", "setting": "[32]", "value": 0.189},
      {"measurement": "glycan array binding signal (z-score)", "setting": "[33]", "value": -0.022}
    ]}
  ]
}
